Among all 330,000 compounds or so, about 1,000 (0.3%) were called active. This list was built around the results that the source calls inconclusive (neither active nor inactive); the mix of calls is not that of the screen. The call rests on the fitted dose curve; in most records, active means well fitted inhibition curve with a large enough effect; inconclusive means small, poorly fitted or top-dose-only effect; inactive means no such curve, though single readings can be large or run the other way; tested in mouse RAW 264.7 cells. Potencies beside an inconclusive call are fits to weak or partial responses and may not hold up.
Test: qHTS for Inhibitors of Cell Surface uPA Generation; further: nearly all actives have a fitted effect of over 55% in size
Settings: cell surface uPA generation assay; series mostly up to 38.3 µM
Outline: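 RAW 264.7, 4000 cells/well, o/n 37 C; cpd 1:5 dilution, up to 38.3 uM final; 24 h 37 C/5% CO2 with reagent; ATP-Lite lum. High ATP = LF entry blocked.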
Potency means the concentration at half of the fitted maximal effect.

Question: With `COC(=O)/C(C#N)=C/c1ccc(OC(=O)c2ccccn2)cc1` as the compound, how does the Potency read?
Answer: inactive

Question: With `Cc1ccc(N/N=C/c2cccnc2)cc1` as the compound, how does the Potency read?
Answer: inconclusive: 14.1 µM [inhibitor, single point]

Question: Which Potency does the source give for `CCOC(=O)CN1C(=O)S/C(=C/c2cccc([N+](=O)[O-])c2O)C1=O` here?
Answer: inactive

Question: For `CC1Cc2ccccc2N1c1ncnc(N)c1[N+](=O)[O-]` (configuration not stated), which Potency is on record?
Answer: inconclusive: 22.4 µM [inhibitor, single point]

Question: For `CCc1ccc(CNC(=O)c2cc3c(C)nc4ccccc4c3o2)cc1`, which Potency is on record?
Answer: inconclusive: 7.94 µM [inhibitor, partial curve, poor fit]

Question: For `Cc1cccc(N=C2NN=C(c3c(C)[nH]c4ccccc34)CS2)c1`, which Potency is on record?
Answer: inactive

Question: For `COc1ccc2cc(CCNC(=O)c3ccco3)c(=O)[nH]c2c1`, which Potency is on record?
Answer: inactive

Question: For `O=C(NCC1CCCO1)c1ccc(CS(=O)(=O)c2c(Cl)cccc2Cl)o1` (configuration not stated), which Potency is on record?
Answer: inconclusive: 28.2 µM [inhibitor, single point]

Question: For `CC(C)c1ccc(/C=C2\SC(=O)N(CC(=O)NC3CCS(=O)(=O)C3)C2=O)cc1` (configuration not stated), which Potency is on record?
Answer: inconclusive: 6.31 µM [inhibitor, partial curve, poor fit]

Question: For `CC(=O)NC(C)c1cc(F)c2cccnc2c1O` (configuration not stated), which Potency is on record?
Answer: inconclusive: 12.6 µM [inhibitor, partial curve, poor fit]

Question: With `CSc1cccc(CN2CCCC(C(=O)Nc3cccc(-n4cccn4)c3)C2)c1` (configuration not stated) as the compound, how does the Potency read?
Answer: inconclusive: 6.31 µM [inhibitor, partial curve, poor fit]

Question: With `COc1ccc(N2CCN(C(=O)c3ccc(CS(=O)c4cccc(C)c4)o3)CC2)cc1` (configuration not stated) as the compound, how does the Potency read?
Answer: inconclusive: 10 µM [inhibitor, single point]

Question: With `Nc1ncnc2c1ncn2[C@@H]1O[C@H](CNC(=O)[C@@H]2CCN2)[C@@H](O)[C@H]1O` as the compound, how does the Potency read?
Answer: inactive

Question: With `Cc1nn(CCO)c(C)c1Oc1ccccc1O` as the compound, how does the Potency read?
Answer: inactive

Question: Which Potency does the source give for `CCc1ccc(C(=O)NC(=S)Nc2ccc(N3CCOCC3)cc2)cc1` here?
Answer: inconclusive: 8.91 µM [inhibitor, single point]

Question: Which Potency does the source give for `N/C(=N\OC(=O)c1cc(Cl)ccc1Cl)c1ccccn1` here?
Answer: inconclusive: 4.47 µM [inhibitor, partial curve, poor fit]

Question: For `CCOC(=O)c1ccc(N/C=C/C(=O)c2ccco2)cc1`, which Potency is on record?
Answer: inconclusive: 2.82 µM [inhibitor, partial curve]

Question: For `O=C1Nc2ccc(Br)cc2/C1=C/C(=O)c1ccc2c(c1)OCO2`, which Potency is on record?
Answer: inconclusive: 8.91 µM [inhibitor, single point]

Question: For `CCC(=O)N1CCN(c2ccc(NC(=O)c3ccc(Br)o3)cc2)CC1`, which Potency is on record?
Answer: inconclusive: 1 µM [inhibitor, full curve, poor fit]

Question: For `CCN1C(=O)N/C(=C/c2ccc(C)o2)C1=O`, which Potency is on record?
Answer: inactive

Question: For `O=C(CNC(=S)N(Cc1ccccc1)Cc1ccccc1F)NCCc1ccc(Cl)cc1`, which Potency is on record?
Answer: inactive

Question: For `Fc1ccccc1/C=C1\CCCC2=C1Nc1nnnn1C2c1ccccc1F` (configuration not stated), which Potency is on record?
Answer: inconclusive: 12.6 µM [inhibitor, partial curve, poor fit]

Question: For `O=C(CN1CCN(Cc2ccccc2Cl)CC1)N/N=C/c1ccccn1`, which Potency is on record?
Answer: inactive

Question: Which Potency does the source give for `COc1ccc(NC(C)=O)cc1NC(=O)c1ccc2ccccc2c1` here?
Answer: inactive

Question: Which Potency does the source give for `COc1ccc(-c2n(Cc3ccccc3)c3ccccc3[n+]2Cc2ccccc2)cc1` here?
Answer: inconclusive: 2.51 µM [inhibitor, full curve, poor fit]

Question: For `CCN(CC)CCNC(=O)c1ccc(NC(=O)c2cn(-c3ccccc3)nc2-c2cccs2)cc1`, which Potency is on record?
Answer: inconclusive: 28.2 µM [inhibitor, single point]

Question: For `COc1ccc(N(C)C(=O)c2ccc3c(Cl)c4c(nc3c2)CCCC4)c(OC)c1`, which Potency is on record?
Answer: inactive

Question: With `O=C(CNCC1CCCO1)Nc1ccc(N2CCCCCC2)cc1` (configuration not stated) as the compound, how does the Potency read?
Answer: inactive

Question: With `CCNc1nn2ccccc2c1/C=C(\C#N)C(=O)OCC` as the compound, how does the Potency read?
Answer: inconclusive: 1.58 µM [inhibitor, partial curve, poor fit]

Question: Which Potency does the source give for `COc1ccc(/C=C2\SC(=S)N(CCCC(=O)Nc3ccc(O)cc3)C2=O)cc1` here?
Answer: inactive

Question: Which Potency does the source give for `O=C(NCC1CCCO1)c1nn2c(C(F)(F)F)cc(-c3cc(Br)cs3)nc2c1Br` (configuration not stated) here?
Answer: inactive

Question: With `CCN(CC)c1ccc(NC(=S)Nc2ccc(F)cc2)cc1` as the compound, how does the Potency read?
Answer: inactive

Question: With `O=C(NCCCN1CCOCC1)c1ccccc1N1C(=O)[C@@H]2Cc3c([nH]c4ccccc34)C(c3cccc(Cl)c3)N2C1=O` (some centres not stated) as the compound, how does the Potency read?
Answer: inconclusive: 15.8 µM [inhibitor, single point]

Question: Which Potency does the source give for `C#Cc1ccc2c(c1)COc1c3ccccc3nn1-2` here?
Answer: active: 12.6 µM

Question: For `COc1cc(-c2ccc3oc(-c4ccsc4)cc(=O)c3c2)cc(OC)c1OC`, which Potency is on record?
Answer: inconclusive: 28.2 µM [inhibitor, single point]

Question: For `COc1ccc(CNC(=O)Cc2nn(C)c(=O)c3ccccc23)cc1`, which Potency is on record?
Answer: inactive

Question: Which Potency does the source give for `Cc1cccc(-c2nnc(-c3ccc(N)cc3)o2)c1` here?
Answer: inactive

Question: For `Cc1cc2nc(-c3ccc[nH]c3=O)n(Cc3ccc(F)cc3)c2cc1C`, which Potency is on record?
Answer: inactive

Question: Which Potency does the source give for `Cc1nn(CC(=O)Nc2nnc(C(C)C)s2)c(=O)c2ccccc12` here?
Answer: inconclusive: 5.01 µM [inhibitor, partial curve, poor fit]

Question: Which Potency does the source give for `Nn1c(SCc2cccc(Oc3ccccc3)c2)nnc1C(F)(F)F` here?
Answer: inactive

Question: For `CCCc1nnc(NC(=O)C23CC4CC(CC(C4)C2)C3)s1`, which Potency is on record?
Answer: inactive

Question: For `CC(=O)N1c2ccc(S(=O)(=O)N3CCC(C(=O)N4CCN(c5cccc(C(F)(F)F)c5)CC4)CC3)cc2CC1C` (configuration not stated), which Potency is on record?
Answer: inconclusive: 2.82 µM [inhibitor, single point]

Question: Which Potency does the source give for `CCOC(=O)/C(C)=N/NC(=O)c1ccc([N+](=O)[O-])cc1` here?
Answer: inactive

Question: For `CCN1CCN(Cc2ccc(NC(=O)Nc3ccccc3OC)cc2)CC1`, which Potency is on record?
Answer: inconclusive: 11.2 µM [inhibitor, partial curve, poor fit]

Question: With `O=C1C(=O)N(CC2COc3ccccc3O2)c2ccccc21` (configuration not stated) as the compound, how does the Potency read?
Answer: inconclusive: 7.94 µM [inhibitor, single point]

Question: With `COc1ccc(-c2csc(NC(=O)CCN3C(=O)C4CC=CCC4C3=O)n2)cc1OC` (configuration not stated) as the compound, how does the Potency read?
Answer: inactive

Question: For `CCOc1ccc(OCC)c(NC(=O)CC2Oc3ccc(C)cc3NC2=O)c1` (configuration not stated), which Potency is on record?
Answer: inconclusive: 28.2 µM [inhibitor, partial curve, poor fit]

Question: Which Potency does the source give for `COc1ccc(-c2cc(=O)c3ccccc3o2)cc1` here?
Answer: inconclusive: 12.6 µM [inhibitor, single point]

Question: For `c1c2c(cc3sc(N4CCCCC4)nc13)OCCO2`, which Potency is on record?
Answer: inconclusive: 0.891 µM [inhibitor, full curve, poor fit]

Question: With `COC(=O)c1cc2c(ccn2-c2ccc(F)cc2)n1CC(=O)OC(C)C` as the compound, how does the Potency read?
Answer: inactive

Question: Which Potency does the source give for `CC(=O)Nc1ccc(NCN2C(=O)C3C4CCC(C4)C3C2=O)cc1` (configuration not stated) here?
Answer: inactive

Question: Which Potency does the source give for `CCOc1ccc(-c2nc(C#N)c(NCc3ccc4c(c3)OCO4)o2)cc1` here?
Answer: inconclusive: 12.6 µM [inhibitor, single point]

Question: Which Potency does the source give for `O=C(CSc1c2c(nc3ccc(Cl)cc13)CCCC2)N1CCN(C(=O)c2ccco2)CC1` here?
Answer: inconclusive: 0.398 µM [inhibitor, full curve]

Question: With `O=C(c1ccc([N+](=O)[O-])o1)N(Cc1nnc(-c2ccccc2Cl)o1)C1CC1` as the compound, how does the Potency read?
Answer: inconclusive: 5.62 µM [inhibitor, partial curve, poor fit]

Question: Which Potency does the source give for `C[C@H](NC(=O)N1CCn2c1nc1ccccc12)C(=O)NCc1ccc2c(c1)OCO2` here?
Answer: inconclusive: 1.41 µM [inhibitor, partial curve, poor fit]

Question: Which Potency does the source give for `NS(=O)(=O)c1ccc(N=Nc2ccc(O)c3ncccc23)cc1` here?
Answer: inconclusive: 3.55 µM [inhibitor, partial curve, poor fit]

Question: With `C(=N\Nc1ncnc2nc[nH]c12)/c1cccs1` as the compound, how does the Potency read?
Answer: inconclusive: 3.98 µM [inhibitor, partial curve, poor fit]

Question: With `Cc1ccc(CC(=O)N(Cc2ccccc2)c2ccccn2)cc1` as the compound, how does the Potency read?
Answer: inactive

Question: Which Potency does the source give for `O=S(=O)(c1ccccc1)N1CCN(c2nc3ccccc3s2)CC1` here?
Answer: inactive

Question: Which Potency does the source give for `CCOC(=O)C1CCN(c2ncnc3nc[nH]c23)CC1` here?
Answer: inconclusive: 28.2 µM [inhibitor, single point]

Question: With `O=C(NCCCN1CCOCC1)c1cc(-c2ccc(Br)cc2)nc2ccccc12` as the compound, how does the Potency read?
Answer: inconclusive: 7.08 µM [inhibitor, partial curve, poor fit]

Question: For `COc1ccc(/C=C/C(=O)c2cc(Cl)ccc2O)c(OC)c1`, which Potency is on record?
Answer: inactive

Question: For `COc1ccc(CN2C(=O)c3cccnc3C2=O)cc1S(=O)(=O)N1CCOc2ccccc21`, which Potency is on record?
Answer: inconclusive: 12.6 µM [inhibitor, single point]

Question: Which Potency does the source give for `CCC1(c2ccccc2)NC(=O)N(CC(=O)N(C)CC(=O)Nc2cccc(F)c2)C1=O` (configuration not stated) here?
Answer: inactive

Question: For `CCCCNc1c(-c2ccc(OC)c(SC3CCCCC3)c2)nc2ccc(Cl)cn12`, which Potency is on record?
Answer: inconclusive: 0.398 µM [inhibitor, full curve, poor fit]

Question: Which Potency does the source give for `CN(C)/N=C/C=C1\CCC/C(=C/c2cccs2)C1=O` here?
Answer: inconclusive: 7.94 µM [inhibitor, single point]

Question: Which Potency does the source give for `C[C@@]12C(=O)Nc3cc(F)ccc3C(=O)N1[C@H]1c3cc(Br)ccc3OC[C@@H]1[C@@H]2c1ccccc1` here?
Answer: inconclusive: 28.2 µM [inhibitor, single point]

Question: For `CN1CCN(CC/C=C2/c3ccccc3Sc3ccc(S(=O)(=O)N(C)C)cc32)CC1`, which Potency is on record?
Answer: inconclusive: 11.2 µM [inhibitor, single point]

Question: Which Potency does the source give for `Cc1nn(-c2cccc(Cl)c2)c2nc(-c3ccco3)cc(C(=O)O)c12` here?
Answer: inactive

Question: With `CCCC(=O)Nc1cc(Cl)ccc1C` as the compound, how does the Potency read?
Answer: inconclusive: 12.6 µM [inhibitor, single point]

Question: For `CCCCN(CC)S(=O)(=O)c1ccc(C(=O)N=c2sc3cc(NC(C)=O)ccc3n2C)cc1`, which Potency is on record?
Answer: inactive

Question: Which Potency does the source give for `O=C(CCc1ccncc1)NC1CCCc2c1cnn2-c1ccc(F)cc1F` (configuration not stated) here?
Answer: inactive
